Source: PubChem BioAssay AID652272 (Drosophila RNAi Screening Center, 2013)

Aim: 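Genes whose knock-down decreases or increases Hedgehog reporter output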 (primary screen)
Cells: Drosophila clone 8 (Cl8) cells
Reagent: long dsRNA against Drosophila genes
Detection: 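Firefly light from a Hedgehog-responsive ptc promoter reporter and Renilla reference light, both read on a plate reader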
Direction: firefly Hh reporter signal: higher = more ptc reporter light; Renilla reference signal: higher = more Renilla control light
Call rule: 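Called a hit if the two-replicate mean z-score lies below -2 or above +3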
Meaning of the calls: active = hit: reporter lowered or raised; inactive = not a hit
In all, the deposit lists about 21,000 reagents; this is a random part of those with a known target gene and a result. Over the whole deposit, 503 (2.4%) got an active call. 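Raw plate light values, not normalised; calls rest on replicate z-scores that were not deposited; hits include reporter decreases as well as increases.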 Names joined by + are all predicted targets of the reagent. Not stated in the record: the amount of reagent, the time to read-out.

target gene | amplicon | firefly Hh reporter signal, replicate 1 | firefly Hh reporter signal, replicate 2 | firefly Hh reporter signal, replicate 3 | Renilla reference signal, replicate 1 | Renilla reference signal, replicate 2 | activity call
Wdr59 (WD repeat domain 59) | DRSC02771 | 1.15e5 | 1.17e5 | – | 4914 | 5080 | inactive
Ir84a (Ionotropic receptor 84a) | DRSC12510 | 48632 | 92195 | – | 1521 | 2593 | inactive
CG34323 | DRSC18916 | 3.84e5 | 1.28e5 | – | 23010 | 2739 | inactive
CG10804 | DRSC17764 | 1.74e5 | 1.10e5 | – | 3810 | 4154 | inactive
Elo68beta (Elongase 68beta) | DRSC09860 | 71530 | 60432 | 58435 | 5480 | 3801 | inactive
Bcs1 (Bcs1 chaperone) | DRSC02789 | 66893 | 54645 | – | 1768 | 4401 | inactive
CG7694 | DRSC16288 | 6.68e5 | 86784 | – | 32778 | 2539 | inactive
CG14852 | DRSC14976 | 1.27e5 | 99588 | – | 4208 | 2552 | inactive
CG14569 | DRSC11730 | 1.67e5 | 1.52e5 | – | 5888 | 4872 | inactive
c11.1 | DRSC18749 | 54310 | 1.78e5 | – | 1322 | 6028 | inactive
CCHa2-R (CCHamide-2 receptor) | DRSC04825 | 1.03e5 | 1.48e5 | – | 3620 | 9312 | active
CCHa2-R (CCHamide-2 receptor) | DRSC04870 | 90412 | 62549 | – | 1876 | 5223 | inactive
CCHa2-R (CCHamide-2 receptor) | DRSC04871 | 88768 | 68801 | – | 1673 | 5494 | inactive
CG15125 | DRSC06547 | 1.22e5 | 65571 | – | 3123 | 5152 | inactive
Mur2B (Mucin related 2B) | DRSC18545 | 96138 | 2.12e5 | – | 1637 | 8585 | inactive
Mur2B (Mucin related 2B) | DRSC18546 | 72794 | 2.03e5 | – | 1586 | 8636 | inactive
Vmat + CG13330 | DRSC06365 | 1.20e5 | 56016 | – | 4762 | 2243 | inactive
CG18420 | DRSC01954 | 1.31e5 | 55510 | – | 3290 | 5763 | inactive
CG14323 | DRSC14802 | 1.29e5 | 94985 | – | 2466 | 247 | inactive
TwdlY (TweedleY) | DRSC19153 | 7.23e5 | 3.37e5 | – | 42640 | 8693 | inactive
Desi (Desiccate) | DRSC14909 | 81584 | 1.37e5 | – | 2349 | 3223 | inactive
CG9733 | DRSC16549 | 79146 | 90208 | – | 2108 | 3373 | inactive
Polr1F (RNA polymerase I subunit F) | DRSC02278 | 42374 | 29236 | – | 2864 | 1792 | inactive
CG33017 | DRSC06573 | 63124 | 60720 | – | 1337 | 4306 | inactive
CG33017 | DRSC06574 | 59952 | 48810 | – | 1421 | 3826 | inactive
icln | DRSC07630 | 83283 | 43232 | – | 2262 | 3368 | inactive
GrlHz (Gustatory receptor-like Holozoa) | DRSC04424 | 90007 | 76402 | – | 3605 | 2884 | inactive
rec (recombination-defective) | DRSC14998 | 64583 | 66359 | – | 1724 | 1836 | inactive
rec (recombination-defective) | DRSC15656 | 69072 | 88852 | – | 1186 | 2320 | inactive
His1:CG33816 + His1:CG33828 + His1:CG33819 + 21 more | DRSC21266 | 44859 | 1.52e5 | – | 1434 | 6569 | inactive
CG13950 | DRSC00368 | 1.03e5 | 96614 | – | 2869 | 2361 | inactive
CG5880 | DRSC15906 | 1.34e5 | 63073 | – | 3194 | 1722 | inactive
CG30050 | DRSC05342 | 92449 | 1.89e5 | – | 2497 | 8697 | inactive
Sox15 (Sox box protein 15) | DRSC07555 | 96258 | 23781 | – | 2770 | 1499 | inactive
CR14117 (pseudo) | DRSC10121 | 39053 | 25114 | 41100 | 2924 | 2708 | inactive
Rcd6 (Reduction in Cnn dots 6) | DRSC06054 | 1.11e5 | 63049 | – | 5472 | 3059 | inactive
Obp50c + Obp50b | DRSC05482 | 96850 | 2.07e5 | – | 2727 | 9184 | inactive
CG17715 | DRSC11950 | 67712 | 84628 | – | 2313 | 1748 | inactive
Ect3 (Ectoderm-expressed 3) | DRSC15462 | 1.71e5 | 1.39e5 | – | 6413 | 3163 | inactive

Records listed so far marked active (1):
target gene | amplicon | firefly Hh reporter signal, replicate 1 | firefly Hh reporter signal, replicate 2 | firefly Hh reporter signal, replicate 3 | Renilla reference signal, replicate 1 | Renilla reference signal, replicate 2 | activity call
CCHa2-R (CCHamide-2 receptor) | DRSC04825 | 1.03e5 | 1.48e5 | – | 3620 | 9312 | active
